PubChem BioAssay AID1259308, NCATS | 2017
This is an unselected part of about 59,000 reagents. Over the whole deposit, about 1,510 (2.6%) are marked active. 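Calls use total luciferase alone and ignore viability, so some active siRNAs may act by altering cell number.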 The numbers tell different reagents against one gene apart.

Purpose: 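Knock-downs that increase output of a recombinant reporter protein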 (primary screen)
Cell system: human HEK293 embryonic kidney cells stably expressing firefly luciferase (HEK-CMV-Luc2-Hygro)
Knock-down reagent: single siRNA against human genes, 0.8 pmol siRNA per well
Time to read-out: 72 h
Detection: 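Reporter luminescence and viable-cell signal on separate replicate plates, given as percent of non-targeting control and median/MAD z-scores, plus per-cell luciferase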
Reading the numbers: total luciferase, z-score and total luciferase, % of control: higher = more reporter protein produced; luciferase per cell, z-score: higher = more reporter output per viable cell; viable cells, % of control: higher = more viable cells
Active means: 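Active when the median/MAD z-score for overall luciferase is greater than 3; a gene was taken forward for validation with new siRNAs if at least two of its three siRNAs passed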
Meaning of the calls: active = raised luciferase; inactive = no rise

| gene knocked down | reagent no. | total luciferase, z-score | total luciferase, % of control | luciferase per cell, z-score | viable cells, % of control | call |
| --- | --- | --- | --- | --- | --- | --- |
| CCL27 | 1 | -0.436 | 73.2 | -0.692 | 98.2 | inactive |
| CCL27 | 2 | -0.759 | 66.8 | -1.23 | 103 | inactive |
| CCL27 | 3 | -1.48 | 52.4 | -0.418 | 65.3 | inactive |
| MTREX | 1 | -0.731 | 67.3 | -0.186 | 79 | inactive |
| MTREX | 2 | -0.835 | 65.3 | -0.823 | 90.6 | inactive |
| MTREX | 3 | -1.04 | 61.2 | -1.02 | 89.6 | inactive |
| CPLX1 | 1 | -0.883 | 64.3 | -1.02 | 94 | inactive |
| CPLX1 | 2 | -0.384 | 74.3 | -0.474 | 94 | inactive |
| CPLX1 | 3 | 0.124 | 84.4 | 0.116 | 91.4 | inactive |
| VASH1 | 1 | -0.489 | 72.2 | -0.437 | 90.5 | inactive |
| VASH1 | 2 | 0.0194 | 82.3 | -0.128 | 95.1 | inactive |
| VASH1 | 3 | 0.933 | 100 | 1.1 | 83.9 | inactive |
| OR12D3 | 1 | 1.04 | 103 | 0.577 | 98.5 | inactive |
| OR12D3 | 2 | 1.12 | 104 | 0.708 | 96.6 | inactive |
| OR12D3 | 3 | -0.168 | 78.5 | -0.119 | 90.6 | inactive |
| ATG9B | 1 | 0.845 | 98.7 | 0.226 | 104 | inactive |
| ATG9B | 2 | 2.32 | 128 | 1.87 | 87.5 | inactive |
| ATG9B | 3 | -1.23 | 57.4 | -1.17 | 87.2 | inactive |
| DHX8 | 1 | -1.54 | 51.3 | -1.08 | 76.1 | inactive |
| DHX8 | 2 | 2.04 | 122 | 2.73 | 66.7 | inactive |
| DHX8 | 3 | 1.93 | 120 | 1.82 | 83.1 | inactive |

Ordered by “viable cells, % of control” (lowest first): 2 of the entries above.
| gene knocked down | reagent no. | total luciferase, z-score | total luciferase, % of control | luciferase per cell, z-score | viable cells, % of control | call |
| --- | --- | --- | --- | --- | --- | --- |
| CPLX1 | 1 | -0.883 | 64.3 | -1.02 | 94 | inactive |
| CPLX1 | 2 | -0.384 | 74.3 | -0.474 | 94 | inactive |

More reagents follow:
| gene knocked down | reagent no. | total luciferase, z-score | total luciferase, % of control | luciferase per cell, z-score | viable cells, % of control | call |
| --- | --- | --- | --- | --- | --- | --- |
| KIAA2012-AS1 | 1 | -0.0773 | 80.3 | -0.567 | 104 | inactive |
| KIAA2012-AS1 | 2 | 0.32 | 88.3 | 1.65 | 63.8 | inactive |
| KIAA2012-AS1 | 3 | 0.854 | 98.9 | 0.563 | 95.3 | inactive |
| GTF2E1 | 1 | -0.367 | 74.6 | -0.489 | 94.8 | inactive |
| GTF2E1 | 2 | 2.52 | 132 | 2.78 | 70.9 | inactive |
| GTF2E1 | 3 | 3.3 | 147 | 2.76 | 79.8 | active |
| SHISA2 | 1 | 1.16 | 105 | 0.503 | 103 | inactive |
| SHISA2 | 2 | 0.54 | 92.6 | 0.737 | 85.2 | inactive |
| SHISA2 | 3 | 0.113 | 84.1 | 0.168 | 89.9 | inactive |
| TRIM56 | 1 | 0.152 | 84.9 | -0.0136 | 95.2 | inactive |
| TRIM56 | 2 | -0.461 | 72.7 | -0.844 | 102 | inactive |
| TRIM56 | 3 | -1.35 | 55.1 | -1.17 | 83.7 | inactive |
| SLC7A11 | 1 | -0.0488 | 80.9 | -0.115 | 93.2 | inactive |
| SLC7A11 | 2 | -0.634 | 69.3 | -0.914 | 98.5 | inactive |
| SLC7A11 | 3 | -0.0517 | 80.9 | -0.415 | 101 | inactive |
| ZNF343 | 1 | 1.4 | 110 | 1.35 | 85.8 | inactive |
| ZNF343 | 2 | 0.773 | 97.3 | 1.07 | 81.9 | inactive |
| ZNF343 | 3 | 0.198 | 85.8 | 0.0838 | 93.8 | inactive |
